{"source": "patent EP0411503B1", "about": "“Process for identifying and synthesizing binding sites of interacting proteins” (priority 1989, dated 1999)", "system": "HIV-1 gp120 (429-439) peptide", "experiment": "Analytical affinity chromatography of complementary peptides on immobilized HIV-1 gp120 (429-439) peptide", "type": "binding", "details": "HIV-1 gp120 (429-439) peptide added at 1mM to the elution buffer", "note": "At least one peptide structure holds a part that was inferred or is arguable (an end, a ring closure or a residue). Where no end group is shown, it is not given here.", "data": [{"sequence": "APPISGQIRCS [HIV-1 gp120 (429-439) peptide, APPISGQIRCS]", "values": [{"measurement": "binding in competitive binding assay", "result": "completely inhibited"}]}]}
